Source: PubChem BioAssay AID720703 (Peter MacCallum Cancer Centre, 2013)

Assay: 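Kinase knock-down screen for links between AT1R and EGFR signalling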 (primary screen)
Cells: immortalised, SV40-transformed mammary epithelial cells from human, with stable expression of tagged AT1R
Reagents: siRNA pool against human genes, 40 nM siRNA pool per well
Duration: 72 h from transfection to lysis and read-out
Challenge: angiotensin II stimulation (dose and duration not given); EGFR inhibitor AG1478 also listed
Detection: 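AlphaScreen bead assay of phosphorylated ERK1/2 in cell lysates, corrected for well confluency, converted to robust z-scores and averaged across two technical replicate plates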
Reading the numbers: phospho-ERK z-score: higher = more ERK phosphorylation after angiotensin II, relative to plate
Rule for the call: 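The 50 highest-ranked pools, at either end of the score, are marked as chosen for follow-up; the cut-off used is not reported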
Meaning of the calls: active = picked for secondary screen; inactive = not picked
Shown is a random part of 714 deposited reagents. 50 of all reagents (7%) were called active. 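Chosen pools sit at both extremes, so both low and high scores count as candidates; some pools appear more than once.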 No sequences are given here.

| Gene | phospho-ERK z-score, replicate mean | Outcome |
| --- | --- | --- |
| MAK | -0.82 | inactive |
| GK | 0.48 | inactive |
| NME2 | -0.94 | inactive |
| EPHB3 | -1.31 | active |
| PCK2 | 1.2 | inactive |
| STRADA | 5.24 | active |
| PDGFRB | -0.22 | inactive |
| ERBB4 | -0.48 | inactive |
| PRKCB | 0.46 | inactive |
| NME5 | -0.28 | inactive |
| TK2 | -0.4 | inactive |
| BTK | 0.26 | inactive |
| DUSP21 | 0.75 | inactive |
| DBF4 | -1.52 | active |
| RPS6KA3 | 0.54 | inactive |
| DDR1 | 0.4 | inactive |
| WNK4 | -0.34 | inactive |
| STK31 | 0.12 | inactive |
| CRIM1 | 0.18 | inactive |
| PHKG2 | -0.04 | inactive |
| MAP3K11 | -1.04 | inactive |
| TESK2 | -0.11 | inactive |
| TRIB1 | 1.05 | inactive |
| UCKL1 | -0.55 | inactive |
| MAP2K1 | -0.82 | inactive |
| MTOR | 0.21 | inactive |
| PRKACG | 0.28 | inactive |
| CLK1 | 1.52 | inactive |
| CERK | -0.38 | inactive |
| SYK | 1.64 | inactive |
| CDKL1 | 0.21 | inactive |
| PGK1 | -0.72 | inactive |
| PIM2 | 0.04 | inactive |
| BUB1B | 0.07 | inactive |
| GSK3B | 1.23 | inactive |
| PKIB | 1.12 | inactive |
| PDXK | -0.43 | inactive |
| IKBKE | -0.32 | inactive |
| CLK4 | -0.36 | inactive |
| PKN2 | 0.57 | inactive |
| STK25 | -1.05 | inactive |
| PRKAG3 | 0.73 | inactive |
| FLT4 | -0.48 | inactive |
| CDK6 | 0.86 | inactive |
| PI4KB | -0.19 | inactive |
| TEX14 | -0.48 | inactive |
| EPHB2 | -0.28 | inactive |
| RELA | -1.04 | inactive |
| SMG1 | 1.46 | inactive |
| CKB | 0.27 | inactive |
| MAGI2 | 1 | inactive |
| IRAK1 | 0.9 | inactive |
| HK1 | 0.24 | inactive |
| MYLK4 | 0.48 | inactive |
| ACVR2A | -0.64 | inactive |
| KCNH2 | -0.94 | inactive |
| DCLK3 | 0.35 | inactive |
| PFKFB2 | -0.04 | inactive |
| PI4KA | -1.43 | active |
| ETNK1 | -0.71 | inactive |
| PRKAR2B | 0.57 | inactive |
| CDK9 | -0.11 | inactive |
| MAPKAPK5 | 1.5 | inactive |
| EPHB1 | 1.31 | inactive |
| MAPK7 | -0.47 | inactive |
| CKMT1B | -0.36 | inactive |
| PIKFYVE | 4.65 | active |
| STK16 | -1.46 | active |
| NLK | 1.67 | inactive |
| FXN | -0.8 | inactive |
| ELP1 | -0.42 | inactive |
| PRKCQ | -0.22 | inactive |
| PEAK1 | 1.48 | inactive |
| DGKD | -0.99 | inactive |
| RBKS | 0.72 | inactive |
| MAP3K13 | 2.1 | inactive |
| CAMK2N1 | 0.02 | inactive |
| IPPK | 3.53 | active |
| ERN1 | -0.86 | inactive |
| HIPK2 | 0.25 | inactive |
| PKMYT1 | -0.8 | inactive |
| INSRR | 1.27 | inactive |
| CAMK1 | -0.82 | inactive |
| MUSK | -0.01 | inactive |
| DAPK3 | 0.99 | inactive |
| EPHA7 | 1.38 | inactive |
| EPHA6 | -0.76 | inactive |
| CSNK2A2 | -0.17 | inactive |
| TWF2 | 1.76 | inactive |
| LRRK1 | -0.76 | inactive |
| ROCK1 | -0.29 | inactive |
| PIP5K1B | 2.56 | active |
| GK2 | -0.82 | inactive |
| PRKG1 | 2.98 | active |
| SKAP1 | -0.38 | inactive |
| PRKD3 | 0.69 | inactive |
| PIK3C3 | 0.42 | inactive |
| SIK2 | 1.03 | inactive |
| AK1 | -0.04 | inactive |
| ATP23 | -0.54 | inactive |
| STK38 | -0.3 | inactive |
| STK39 | 0.06 | inactive |
| MOK | 0.68 | inactive |
| MAPK8 | -0.59 | inactive |
| MAPKAPK3 | 1.66 | inactive |
| PDGFRL | -0.56 | inactive |
| PNCK | -0.23 | inactive |
| CDK3 | -1.03 | inactive |
| KDR | -0.48 | inactive |
| PFKFB1 | -0.86 | inactive |
| NME1 | 0.88 | inactive |
| AK4 | -1.03 | inactive |
| VRK3 | -0.22 | inactive |
| MPP1 | -0.28 | inactive |
| PIP4K2A | 0.68 | inactive |
| IRAK2 | 1.38 | inactive |
| CDK13 | -0.91 | inactive |
| EPHA2 | 0.06 | inactive |
| MAP2K7 | -0.1 | inactive |
| LMTK2 | 0.36 | inactive |
| PIM1 | 0.7 | inactive |
| MAPK13 | 0.12 | inactive |
| NME6 | -0.75 | inactive |
| CDKN1B | -0.42 | inactive |
| TESK1 | 3.78 | inactive |
| DCLK1 | -0.6 | inactive |
| BRAF | 2.58 | inactive |
| PIP4K2B | 1.87 | inactive |
| TGFBR1 | -0.14 | inactive |
| CDC42BPG | -0.52 | inactive |
| SHPK | -0.92 | inactive |
| LMBR1 | 0.09 | inactive |
| PAK5 | -0.81 | inactive |
| MAP3K3 | -0.36 | inactive |
| EFNA4 | -0.08 | inactive |
| MYO3A | 1.48 | inactive |
| BCKDK | 0.03 | inactive |
| SIK1 | -0.03 | inactive |
| RIPK1 | 0.64 | inactive |
| CERT1 | -0.84 | inactive |
